Article PMC7294906

The chains behind the UniProt entries cited, without tags or fusion partners.
UniProt P03372: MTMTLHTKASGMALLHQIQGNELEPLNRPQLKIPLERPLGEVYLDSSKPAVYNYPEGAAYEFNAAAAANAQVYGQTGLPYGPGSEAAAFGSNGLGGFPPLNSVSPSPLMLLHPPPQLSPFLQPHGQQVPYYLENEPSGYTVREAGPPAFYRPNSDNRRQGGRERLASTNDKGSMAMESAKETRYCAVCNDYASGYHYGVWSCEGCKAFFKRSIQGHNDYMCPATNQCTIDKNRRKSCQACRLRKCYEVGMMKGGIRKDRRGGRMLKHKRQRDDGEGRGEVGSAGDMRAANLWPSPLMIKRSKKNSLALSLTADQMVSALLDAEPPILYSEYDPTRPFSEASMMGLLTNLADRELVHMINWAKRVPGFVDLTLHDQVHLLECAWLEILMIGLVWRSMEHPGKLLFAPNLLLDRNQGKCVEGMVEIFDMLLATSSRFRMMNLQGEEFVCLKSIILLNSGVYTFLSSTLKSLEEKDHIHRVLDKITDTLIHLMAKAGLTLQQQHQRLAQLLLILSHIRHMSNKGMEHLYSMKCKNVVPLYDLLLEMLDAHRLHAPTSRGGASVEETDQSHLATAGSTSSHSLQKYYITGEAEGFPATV
UniProt Q09472: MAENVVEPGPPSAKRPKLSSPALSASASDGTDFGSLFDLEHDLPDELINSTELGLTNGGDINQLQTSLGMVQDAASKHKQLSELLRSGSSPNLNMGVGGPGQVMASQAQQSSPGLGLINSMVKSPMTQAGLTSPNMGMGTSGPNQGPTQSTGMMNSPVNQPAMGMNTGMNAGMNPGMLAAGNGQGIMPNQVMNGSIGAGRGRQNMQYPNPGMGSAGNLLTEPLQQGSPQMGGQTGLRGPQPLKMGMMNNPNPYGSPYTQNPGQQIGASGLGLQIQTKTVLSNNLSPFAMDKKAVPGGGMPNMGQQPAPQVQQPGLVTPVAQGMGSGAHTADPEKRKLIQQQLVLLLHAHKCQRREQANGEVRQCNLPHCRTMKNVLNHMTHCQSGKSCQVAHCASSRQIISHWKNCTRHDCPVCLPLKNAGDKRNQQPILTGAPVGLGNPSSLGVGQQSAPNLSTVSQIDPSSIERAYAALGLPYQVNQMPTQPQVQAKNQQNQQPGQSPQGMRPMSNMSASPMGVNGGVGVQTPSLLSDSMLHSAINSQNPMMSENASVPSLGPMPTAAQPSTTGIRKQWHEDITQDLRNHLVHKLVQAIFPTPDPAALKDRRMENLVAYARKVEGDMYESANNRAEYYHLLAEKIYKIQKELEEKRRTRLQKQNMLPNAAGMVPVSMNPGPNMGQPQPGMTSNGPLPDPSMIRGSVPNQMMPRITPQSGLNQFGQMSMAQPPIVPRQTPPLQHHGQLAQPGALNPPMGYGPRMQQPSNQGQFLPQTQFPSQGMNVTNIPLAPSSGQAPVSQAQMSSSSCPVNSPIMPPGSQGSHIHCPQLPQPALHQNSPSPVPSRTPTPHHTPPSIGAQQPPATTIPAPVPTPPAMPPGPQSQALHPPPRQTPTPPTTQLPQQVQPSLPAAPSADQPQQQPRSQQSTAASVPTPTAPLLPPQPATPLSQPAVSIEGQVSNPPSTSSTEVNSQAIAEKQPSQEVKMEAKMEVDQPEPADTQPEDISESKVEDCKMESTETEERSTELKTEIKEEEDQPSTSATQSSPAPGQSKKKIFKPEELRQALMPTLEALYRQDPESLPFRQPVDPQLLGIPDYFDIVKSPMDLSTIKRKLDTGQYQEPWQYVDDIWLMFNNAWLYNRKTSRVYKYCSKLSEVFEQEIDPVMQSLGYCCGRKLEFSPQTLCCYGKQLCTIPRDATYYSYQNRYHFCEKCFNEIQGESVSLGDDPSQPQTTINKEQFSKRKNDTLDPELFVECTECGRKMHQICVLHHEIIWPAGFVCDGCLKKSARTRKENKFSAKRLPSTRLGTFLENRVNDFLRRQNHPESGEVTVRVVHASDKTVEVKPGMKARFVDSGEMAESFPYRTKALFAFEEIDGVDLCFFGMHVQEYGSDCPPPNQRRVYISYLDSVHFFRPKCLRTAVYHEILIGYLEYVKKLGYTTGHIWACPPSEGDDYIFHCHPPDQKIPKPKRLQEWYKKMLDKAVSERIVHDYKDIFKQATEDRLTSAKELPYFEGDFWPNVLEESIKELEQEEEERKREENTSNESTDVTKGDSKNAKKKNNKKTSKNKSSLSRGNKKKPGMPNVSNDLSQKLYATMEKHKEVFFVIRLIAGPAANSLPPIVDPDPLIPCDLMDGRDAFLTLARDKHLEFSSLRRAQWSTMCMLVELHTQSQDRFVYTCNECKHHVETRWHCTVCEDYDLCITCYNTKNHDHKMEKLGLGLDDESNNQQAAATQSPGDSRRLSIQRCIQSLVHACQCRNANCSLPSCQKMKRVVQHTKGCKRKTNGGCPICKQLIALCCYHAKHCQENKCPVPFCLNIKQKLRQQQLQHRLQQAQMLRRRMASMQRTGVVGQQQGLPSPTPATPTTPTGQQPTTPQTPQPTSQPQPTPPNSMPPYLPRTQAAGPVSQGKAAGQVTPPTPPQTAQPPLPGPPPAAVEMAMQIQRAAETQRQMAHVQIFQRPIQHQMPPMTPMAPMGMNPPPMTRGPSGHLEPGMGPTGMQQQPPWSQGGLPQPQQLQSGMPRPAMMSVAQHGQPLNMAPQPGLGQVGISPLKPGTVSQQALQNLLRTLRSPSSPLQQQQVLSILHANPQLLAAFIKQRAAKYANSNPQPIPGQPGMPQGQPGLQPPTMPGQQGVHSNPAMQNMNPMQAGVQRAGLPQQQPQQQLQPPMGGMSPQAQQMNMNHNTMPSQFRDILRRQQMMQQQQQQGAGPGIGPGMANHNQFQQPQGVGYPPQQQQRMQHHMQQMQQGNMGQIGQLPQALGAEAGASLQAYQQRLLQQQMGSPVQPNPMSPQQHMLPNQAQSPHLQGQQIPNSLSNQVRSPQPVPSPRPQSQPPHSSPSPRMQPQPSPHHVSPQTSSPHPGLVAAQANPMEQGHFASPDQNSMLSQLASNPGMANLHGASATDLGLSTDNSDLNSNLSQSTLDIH
UniProt P10244: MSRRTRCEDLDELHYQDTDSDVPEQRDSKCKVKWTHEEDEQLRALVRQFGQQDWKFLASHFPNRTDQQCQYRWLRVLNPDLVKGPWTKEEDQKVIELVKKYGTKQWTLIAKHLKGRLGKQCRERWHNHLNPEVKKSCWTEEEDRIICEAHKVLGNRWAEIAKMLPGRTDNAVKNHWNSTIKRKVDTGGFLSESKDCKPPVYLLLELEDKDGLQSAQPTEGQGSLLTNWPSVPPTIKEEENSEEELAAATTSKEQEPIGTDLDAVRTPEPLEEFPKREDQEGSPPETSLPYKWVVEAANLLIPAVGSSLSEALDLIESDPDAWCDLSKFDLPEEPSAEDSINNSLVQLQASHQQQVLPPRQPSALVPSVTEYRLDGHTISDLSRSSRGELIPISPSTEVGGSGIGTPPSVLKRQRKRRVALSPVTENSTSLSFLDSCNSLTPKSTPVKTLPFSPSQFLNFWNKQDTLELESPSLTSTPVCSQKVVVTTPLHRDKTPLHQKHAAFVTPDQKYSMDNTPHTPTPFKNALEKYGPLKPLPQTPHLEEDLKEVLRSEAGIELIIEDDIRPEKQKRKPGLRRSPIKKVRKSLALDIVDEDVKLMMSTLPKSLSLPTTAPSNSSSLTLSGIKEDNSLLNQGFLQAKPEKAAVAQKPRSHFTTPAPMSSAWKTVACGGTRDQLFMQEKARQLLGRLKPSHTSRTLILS
UniProt Q7Z333: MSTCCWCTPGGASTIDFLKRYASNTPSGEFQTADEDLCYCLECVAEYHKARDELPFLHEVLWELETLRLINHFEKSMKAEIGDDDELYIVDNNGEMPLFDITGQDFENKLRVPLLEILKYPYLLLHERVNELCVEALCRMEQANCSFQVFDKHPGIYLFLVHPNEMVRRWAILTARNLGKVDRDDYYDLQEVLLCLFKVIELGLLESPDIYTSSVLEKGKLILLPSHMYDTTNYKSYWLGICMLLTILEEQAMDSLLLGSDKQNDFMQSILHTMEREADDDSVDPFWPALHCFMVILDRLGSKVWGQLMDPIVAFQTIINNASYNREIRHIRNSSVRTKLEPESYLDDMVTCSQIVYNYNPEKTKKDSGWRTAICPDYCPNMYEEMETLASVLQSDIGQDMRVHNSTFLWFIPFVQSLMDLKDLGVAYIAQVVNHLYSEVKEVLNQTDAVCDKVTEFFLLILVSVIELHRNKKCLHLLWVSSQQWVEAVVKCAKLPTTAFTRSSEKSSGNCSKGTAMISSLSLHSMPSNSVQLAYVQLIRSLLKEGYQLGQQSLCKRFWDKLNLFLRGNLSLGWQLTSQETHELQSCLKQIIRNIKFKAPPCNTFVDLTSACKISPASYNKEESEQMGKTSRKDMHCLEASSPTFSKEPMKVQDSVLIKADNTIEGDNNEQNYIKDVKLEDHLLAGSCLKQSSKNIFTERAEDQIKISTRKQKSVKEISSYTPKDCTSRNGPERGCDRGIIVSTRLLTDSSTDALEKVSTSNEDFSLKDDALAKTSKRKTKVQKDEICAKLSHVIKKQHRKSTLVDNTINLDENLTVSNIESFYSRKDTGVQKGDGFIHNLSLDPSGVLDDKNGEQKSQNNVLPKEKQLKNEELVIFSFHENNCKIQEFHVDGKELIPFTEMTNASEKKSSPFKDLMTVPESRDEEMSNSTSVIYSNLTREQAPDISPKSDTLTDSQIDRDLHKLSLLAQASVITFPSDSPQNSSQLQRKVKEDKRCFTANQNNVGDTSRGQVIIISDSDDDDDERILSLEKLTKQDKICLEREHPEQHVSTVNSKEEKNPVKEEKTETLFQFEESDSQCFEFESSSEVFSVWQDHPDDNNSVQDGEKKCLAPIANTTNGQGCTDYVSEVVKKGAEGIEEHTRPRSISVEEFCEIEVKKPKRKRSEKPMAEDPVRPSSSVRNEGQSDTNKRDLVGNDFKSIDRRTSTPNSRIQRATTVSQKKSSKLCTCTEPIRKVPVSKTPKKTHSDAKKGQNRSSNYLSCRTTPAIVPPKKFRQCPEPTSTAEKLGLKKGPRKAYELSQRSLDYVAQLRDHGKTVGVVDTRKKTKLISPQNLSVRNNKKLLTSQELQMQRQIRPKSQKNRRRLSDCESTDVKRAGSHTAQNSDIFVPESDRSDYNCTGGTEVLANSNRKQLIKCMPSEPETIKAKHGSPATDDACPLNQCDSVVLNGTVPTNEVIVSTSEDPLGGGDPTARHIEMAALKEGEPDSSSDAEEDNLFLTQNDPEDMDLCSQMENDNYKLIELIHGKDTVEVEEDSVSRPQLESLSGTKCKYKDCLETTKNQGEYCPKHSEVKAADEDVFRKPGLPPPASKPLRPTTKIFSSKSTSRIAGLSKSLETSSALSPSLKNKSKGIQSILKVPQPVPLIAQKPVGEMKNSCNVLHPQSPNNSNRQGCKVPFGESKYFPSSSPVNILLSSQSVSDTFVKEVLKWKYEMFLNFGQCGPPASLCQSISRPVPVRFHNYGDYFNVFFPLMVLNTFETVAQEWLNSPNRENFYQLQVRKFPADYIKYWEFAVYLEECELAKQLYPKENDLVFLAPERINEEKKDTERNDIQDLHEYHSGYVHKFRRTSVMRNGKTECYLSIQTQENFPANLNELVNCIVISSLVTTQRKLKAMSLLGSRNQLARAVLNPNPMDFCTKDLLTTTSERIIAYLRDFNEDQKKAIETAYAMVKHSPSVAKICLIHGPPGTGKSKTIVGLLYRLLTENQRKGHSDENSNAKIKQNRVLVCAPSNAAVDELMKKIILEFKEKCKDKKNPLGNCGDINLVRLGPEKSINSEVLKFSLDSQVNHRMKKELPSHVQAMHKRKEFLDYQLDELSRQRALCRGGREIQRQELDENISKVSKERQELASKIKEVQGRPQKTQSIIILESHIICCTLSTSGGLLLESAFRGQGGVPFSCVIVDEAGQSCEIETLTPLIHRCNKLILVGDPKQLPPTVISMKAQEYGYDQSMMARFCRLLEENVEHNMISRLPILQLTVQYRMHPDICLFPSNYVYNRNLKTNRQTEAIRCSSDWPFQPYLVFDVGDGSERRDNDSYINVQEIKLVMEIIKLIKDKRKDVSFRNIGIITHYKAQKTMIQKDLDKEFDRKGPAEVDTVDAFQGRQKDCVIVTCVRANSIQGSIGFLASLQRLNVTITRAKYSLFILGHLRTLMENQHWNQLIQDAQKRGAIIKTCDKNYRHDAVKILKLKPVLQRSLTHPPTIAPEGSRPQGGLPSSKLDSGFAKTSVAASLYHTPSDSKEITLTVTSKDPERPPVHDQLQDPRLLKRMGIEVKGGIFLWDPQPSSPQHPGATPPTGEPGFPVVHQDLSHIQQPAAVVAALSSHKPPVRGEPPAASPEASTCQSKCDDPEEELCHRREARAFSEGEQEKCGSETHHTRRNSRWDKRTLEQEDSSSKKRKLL

Experiments:
recombinant ERα protein [1] = molecular target: recombinant ERα protein (UniProt P03372); test: affinity purification with mass spectrometry; ERE DNA pulldown: biotinylated 921 bp 4xERE DNA on Dynabeads M280 streptavidin, 0.5 ug recombinant ERα + 1 mg MCF-7:5C nuclear extract, with 1 uM Z2OHTPE, 1.5 h at 4°C, three washes; label-free LC-MS, enrichment against vehicle (ethanol), duplicates; only the target purified
recombinant ERα protein [2] = molecular target: recombinant ERα protein (UniProt P03372); test: affinity purification with mass spectrometry; ERE DNA pulldown: biotinylated 921 bp 4xERE DNA on Dynabeads M280 streptavidin, 0.5 ug recombinant ERα + 1 mg MCF-7:5C nuclear extract, with 1 uM BPTPE, 1.5 h at 4°C, three washes; label-free LC-MS, enrichment against vehicle (ethanol), duplicates; only the target purified
recombinant ERα protein [3] = molecular target: recombinant ERα protein (UniProt P03372); test: affinity purification with mass spectrometry; ERE DNA pulldown: biotinylated 921 bp 4xERE DNA on Dynabeads M280 streptavidin, 0.5 ug recombinant ERα + 1 mg MCF-7:5C nuclear extract, with 1 uM 3OHTPE, 1.5 h at 4°C, three washes; label-free LC-MS, enrichment against vehicle (ethanol), duplicates; only the target purified
recombinant ERα protein [4] = molecular target: recombinant ERα protein (UniProt P03372); test: affinity purification with mass spectrometry; ERE DNA pulldown: biotinylated 921 bp 4xERE DNA on Dynabeads M280 streptavidin, 0.5 ug recombinant ERα + 1 mg MCF-7:5C nuclear extract, with 1 uM endoxifen, 1.5 h at 4°C, three washes; label-free LC-MS, enrichment against vehicle (ethanol), duplicates; only the target purified
recombinant ERα protein [5] = molecular target: recombinant ERα protein (UniProt P03372); test: affinity purification with mass spectrometry; ERE DNA pulldown: biotinylated 921 bp 4xERE DNA on Dynabeads M280 streptavidin, 0.5 ug recombinant ERα + 1 mg MCF-7:5C nuclear extract, with 100 nM E2, 1.5 h at 4°C, three washes; label-free LC-MS, enrichment against vehicle (ethanol), duplicates; only the target purified

Molecule: GREB1L (from UniProt Q9C091 1-1923)
- binding (recombinant ERα protein [1]): binds

Molecule: TRIM28 (from UniProt Q13263 1-835)
- binding (recombinant ERα protein [2]): no binding (only with 1 uM BPTPE)
- binding (recombinant ERα protein [3]): binds
- binding (recombinant ERα protein [1]): binds
- binding (recombinant ERα protein [4]): binds

Molecule: NCOA6 (from UniProt Q14686 1-2063)
- binding (recombinant ERα protein [5]): binds
- binding (recombinant ERα protein [1]): binds
- binding (recombinant ERα protein [4]): no binding (only with 1 uM endoxifen)

Molecule: TBC1D9B (from UniProt Q66K14 1-1250)
- binding (recombinant ERα protein [1]): binds

Molecule: p300 (EP300) (from UniProt Q09472 1-2414)
- binding (recombinant ERα protein [5]): binds
- binding (recombinant ERα protein [1]): binds
- binding (recombinant ERα protein [4]): no binding (only with 1 uM endoxifen)

Molecule: MYBL2 (from UniProt P10244 1-700)
- binding (recombinant ERα protein [2]): binds
- binding (recombinant ERα protein [3]): no binding (only with 1 uM 3OHTPE)
- binding (recombinant ERα protein [1]): no binding (only with 1 uM Z2OHTPE)
- binding (recombinant ERα protein [4]): binds

Molecule: SETX (from UniProt Q7Z333 1-2677)
- binding (recombinant ERα protein [2]): no binding (only with 1 uM BPTPE)
- binding (recombinant ERα protein [3]): no binding (only with 1 uM 3OHTPE)
- binding (recombinant ERα protein [1]): binds
- binding (recombinant ERα protein [4]): binds

B1: PHC3 (protein, UniProt Q8NDX5 1-983)
chain: MDTEPNPGTSSVSTTTSSTTTTTITTSSSRMQQPQISVYSGSDRHAVQVIQQALHRPPSSAAQYLQQMYAAQQQHLMLHTAALQQQHLSSSQLQSLAAVQASLSSGRPSTSPTGSVTQQSSMSQTSINLSTSPTPAQLISRSQASSSTSGSITQQTMLLGSTSPTLTASQAQMYLRAQMLIFTPATTVAAVQSDIPVVSSSSSSSCQSAATQVQNLTLRSQKLGVLSSSQNGPPKSTSQTQSLTICHNKTTVTSSKISQRDPSPESNKKGESPSLESRSTAVTRTSSIHQLIAPASYSPIQPHSLIKHQQIPLHSPPSKVSHHQLILQQQQQQIQPITLQNSTQDPPPSQHCIPLQNHGLPPAPSNAQSQHCSPIQSHPSPLTVSPNQSQSAQQSVVVSPPPPHSPSQSPTIIIHPQALIQPHPLVSSALQPGPNLQQSTANQVQATAQLNLPSHLPLPASPVVHIGPVQQSALVSPGQQIVSPSHQQYSSLQSSPIPIASPPQMSTSPPAQIPPLPLQSMQSLQVQPEILSQGQVLVQNALVSEEELPAAEALVQLPFQTLPPPQTVAVNLQVQPPAPVDPPVVYQVEDVCEEEMPEESDECVRMDRTPPPPTLSPAAITVGRGEDLTSEHPLLEQVELPAVASVSASVIKSPSDPSHVSVPPPPLLLPAATTRSNSTSMHSSIPSIENKPPQAIVKPQILTHVIEGFVIQEGLEPFPVSRSSLLIEQPVKKRPLLDNQVINSVCVQPELQNNTKHADNSSDTEMEDMIAEETLEEMDSELLKCEFCGKMGYANEFLRSKRFCTMSCAKRYNVSCSKKFALSRWNRKPDNQSLGHRGRRPSGPDGAAREHILRQLPITYPSAEEDLASHEDSVPSAMTTRLRRQSERERERELRDVRIRKMPENSDLLPVAQTEPSIWTVDDVWAFIHSLPGCQDIADEFRAQEIDGQALLLLKEDHLMSAMNIKLGPALKICARINSLKES
- binding (recombinant ERα protein [2]): no binding (only with 1 uM BPTPE)
- binding (recombinant ERα protein [3]): binds
- binding (recombinant ERα protein [1]): binds
- binding (recombinant ERα protein [4]): binds

No constants are given. Whether binding was seen depends on the method and setting. Binding seen in cells or lysates may run through a third protein. These calls come from enrichment with a bait or labelling near it, and not all partners need be listed. For part of these data: No binding means not detected with the bait.
